The text below walks through data of PubChem BioAssay AID2685 (National Center for Advancing Translational Sciences (NCATS), 2010).

As usually defined, the AC50 is the midpoint of the concentration-response curve, whichever way the signal moves.

The assay in a line: qHTS Assay for Lipid Storage Modulators in Drosophila S3 Cells.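 For cell number change: cells counted by Cell Tracker Red CMTPX staining in the red channel.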 The settings on record: BODIPY lipid droplet fluorescence, 18-24 h; for cell number change: measured here: cell count max response, cells fed with added oleic acid. In short, it runs like this: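 Laser-scanning cytometry quantifies lipid droplet accumulation (500–530 nm total intensity; droplet/cell object ratio) in oleic acid-fed (400 uM added) Drosophila S3 cells treated with a concentration series. 20 uM Triacsin C defined 100% inhibition.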
A general note: qHTS replaces the single test concentration by a dilution series.

Setting [1] is: measured here: lipid fluorescence (Fed channel) AC50, cells fed with added oleic acid.
[2] abbreviates: measured here: cell number channel AC50, cells fed with added oleic acid.

The list shows a part of the results. The main result of the screen is listed elsewhere. These columns were measured beside it and carry no call. The list favours compounds with an active or inconclusive main result. Potencies come from curve fits of mixed quality, noted in brackets.

Regarding `CCn1c(C)cc(C(=O)CSc2nnnn2C2CCCC2)c1C`, the cell number change is -4.28%. For the same compound, the AC50 under setting [1] was 0.00517 µM [rising, full curve, poor fit].

As to `O=S(=O)(NCCNS(=O)(=O)c1ccccc1)c1ccccc1`, the cell number change is -61.8%. Besides, the AC50 under setting [2] is 3.66 µM [falling, full curve]. For the same compound, under setting [1], the AC50 is 29.1 µM [falling, single point].

As to `Cc1nn(Cc2c(Cl)cccc2Cl)c(C)c1C(=O)NCc1ccc(C)n1C`, the cell number change is 82.3%. Further, the AC50 under setting [2] was 3.26 µM [rising, full curve]. The AC50 under setting [1] was 3.26 µM [rising, partial curve].

Take `COc1cc(/C=N/NC(=O)CNC(=O)/C=C/c2ccco2)cc(OC)c1OC`: the cell number change is -0.427%. For the same compound, the AC50 under setting [1] is 0.184 µM [falling, full curve, poor fit].

Regarding `Cc1cc(NC(=O)CSc2ncnc3ccccc23)no1`, the AC50 was 1.46 µM [rising, partial curve] under setting [2] and 1.16 µM [rising, full curve] under setting [1].

In the case of `COc1ccc(C2=CC(=O)OC(C)(c3ccccc3)O2)cc1` (stereo not drawn), the cell number change worked out at 13.9%. In addition, under setting [1], the AC50 was 29.1 µM [rising, single point].

As for `CCCCCC(=O)Nc1sc(C)c(C)c1C#N`, the cell number change was -7.06%.

For the compound `CC(=O)c1sc(NC(=O)C2CCCN2S(=O)(=O)c2ccccc2F)nc1C` (stereo not drawn), the AC50 under setting [1] is 1.3 µM [rising, partial curve].

For `COc1ccc(C2(C)NC(=O)N(CC(=O)NC3CCCC3)C2=O)cc1OC` (stereo not drawn), the cell number change was -4.53%. The AC50 under setting [1] is 6.51 µM [rising, single point].

Turning to `Cc1cc(S(=O)(=O)Nc2ccc3c(c2)COC3=O)ccc1F`, the cell number change is -20.6%. The AC50 under setting [1] is 4.11 µM [falling, full curve].

For `Cc1ccc(NS(=O)(=O)Cc2ccccc2)cc1Cl`, the cell number change is -45.5%. In addition, the half-maximal activity concentration (AC50) under setting [2] is 20.6 µM [falling, partial curve, poor fit].

As for `O=C(CN1C(=O)/C(=C/c2ccccc2)SC1=S)Nc1ncc(Cc2ccccc2)s1`, the cell number change worked out at 7.35%. Also, under setting [1], the AC50 is 5.17 µM [rising, full curve].

As for `COc1ccc(C(CNC(=O)c2c(C)nn(Cc3ccccc3)c2Cl)N2CCOCC2)cc1` (stereo not drawn), the cell number change came out at 5.08%. In addition, the AC50 under setting [1] was 2.91 µM [rising, partial curve].

As for `COc1ccc([N+](=O)[O-])cc1NC(=O)COC(=O)Cc1cc(OC)c(OC)c(OC)c1`, the cell number change was -35.6%. For the same compound, under setting [2], the AC50 was 2.91 µM [falling, partial curve]. Also, the AC50 under setting [1] was 5.17 µM [falling, partial curve].

In the case of `O=C(c1cnccn1)N1CCc2ccccc21`, the cell number change was -13.8%. Further, under setting [1], the AC50 was 0.651 µM [rising, full curve, poor fit].

Take `Cc1cccc(C)c1NC(=O)N1CC=CCC1`: the cell number change is -6.38%.

For the compound `CN1CCN(c2nc(-c3ccc(Cl)c(Cl)c3)nc3ccccc23)CC1`, the cell number change was -15.9%. For the same compound, under setting [1], the AC50 is 32.6 µM [falling, single point].

Regarding `CCCc1c(C)nn(C(=O)/C(C#N)=N/Nc2ccccc2[N+](=O)[O-])c1C`, the cell number change is -12.4%. The AC50 under setting [1] was 0.461 µM [falling, full curve, poor fit].

Regarding `N#Cc1c(N2CCOCC2)nsc1-c1ccc(C(F)(F)F)cc1`, the AC50 runs as follows: under setting [2], 6.51 µM [rising, single point]; under setting [1], 4.61 µM [rising, full curve, poor fit].

Regarding `O=C(O)CCn1cc(-c2ccc(Cl)cc2)nc1-c1ccc(Cl)nc1`, the cell number change was -3.39%. The AC50 under setting [1] is 32.6 µM [rising, single point].

Take `CCOC(=O)C(CC)Sc1cc(C)nc2ccc(OC)cc12` (stereo not drawn): the cell number change amounted to 14%. The AC50 under setting [2] is 0.206 µM [rising, partial curve, poor fit]. Under setting [1], the AC50 was 2.06 µM [rising, full curve, poor fit].

As for `Cc1ccc(OCCOC(=O)c2cccc(S(=O)(=O)N3CC(C)OC(C)C3)c2)cc1` (stereo not drawn), the cell number change is 1.25%. Moreover, the AC50 under setting [1] is 6.51 µM [rising, single point].

With `COc1cc(N/C(=N/S(=O)(=O)c2ccccc2)c2ccccc2)ncn1`, the cell number change came to 1.72%. Also, the AC50 under setting [1] is 29.1 µM [rising, single point].

For the compound `O=C(Nc1nnc(-c2ccccc2)o1)c1cc(Cl)sc1Cl`, the cell number change was -33.3%. Under setting [2], the AC50 is 0.164 µM [falling, full curve, poor fit].

Turning to `COc1ccc(C(=O)NNC(=O)Cc2ccc([N+](=O)[O-])cc2)cc1`, the cell number change stood at 17.4%. The AC50 under setting [1] was 16.4 µM [rising, partial curve, poor fit].

As to `Cc1cc2nc(N=C(N)N)nc(C)c2cc1C`, the cell number change is 43.5%. In addition, the AC50 under setting [2] was 16.4 µM [rising, single point].

On to `COc1ccc(S(=O)(=O)N(C)C)cc1NC(=O)CCNC(=O)c1ccco1`, for which the cell number change amounted to 18.5%. Besides, under setting [1], the AC50 was 0.231 µM [rising, full curve, poor fit].

Regarding `COC(=O)Cc1cc(OC)c(OC)cc1S(=O)(=O)N(C)C`, the cell number change was -46.5%. For the same compound, the AC50 under setting [2] was 0.58 µM [falling, full curve, poor fit].

Regarding `C=CCN1C(=O)c2ccc(C(=O)N(CC(C)C)c3c(N)n(CCCC)c(=O)[nH]c3=O)cc2C1=O`, the cell number change came out at 2.01%.

Turning to `O=C(Cn1c(=O)oc2ccccc21)N1CCOCC1`, the cell number change was -9.87%. Moreover, under setting [1], the AC50 was 0.0259 µM [falling, full curve, poor fit].

With `CN1CCN(C(c2ccc(C(F)(F)F)cc2)c2cc(Cl)c3cccnc3c2O)CC1` (stereo not drawn), the cell number change is 11.3%. Moreover, under setting [1], the AC50 is 29.1 µM [falling, single point].

As to `CCCC1(C(=O)OCC)NC(c2ccc(O)cc2)C2C(=O)N(c3cccc(C(C)=O)c3)C(=O)C21` (stereo not drawn), the cell number change was -10.3%. The AC50 under setting [1] was 29.1 µM [rising, single point].

As to `COc1ccc([N+](=O)[O-])cc1NC(=O)c1cncc(Br)c1`, the cell number change is -74.2%. Moreover, the concentration at half-maximal activity (AC50) under setting [2] is 29.1 µM [falling, single point].

As to `O=C1CCN(Cc2cccnc2)CCN1[C@H](CO)Cc1ccccc1`, the cell number change was 26%. Further, the AC50 under setting [2] was 0.461 µM [rising, full curve, poor fit]. Besides, the AC50 under setting [1] was 0.58 µM [rising, single point].

`CCOc1ccccc1NC(=O)c1ccc2c(c1)C(=O)N(CC1CCCO1)C2=O` (stereo not drawn): under setting [1], the AC50 is 29.1 µM [falling, single point].

For the compound `CCOc1ccccc1N(C(=O)c1snc(C(N)=O)c1N)C(C(=O)NC1CCCC1)c1cccs1` (stereo not drawn), the cell number change is -22.9%. In addition, under setting [1], the AC50 was 29.1 µM [falling, single point].

For the compound `COc1cc(C(=O)NCc2ccc(-c3nc4ccccc4o3)cc2)cc(OC)c1OC`, the AC50 under setting [2] was 6.51 µM [falling, single point].

Turning to `COc1ccccc1C(=O)NCC(=O)OC(C)C(=O)NC1CCCCC1C` (stereo not drawn), the cell number change was -13.2%. Besides, the AC50 under setting [1] was 6.51 µM [falling, partial curve].

Regarding `COC(=O)c1cccc(NC(=O)CSc2nncn2-c2ccccn2)c1`, the cell number change was -7.39%. Under setting [1], the AC50 was 29.1 µM [falling, single point].

In the case of `CN(C)c1ccc(N=C/C=C2\N(C)c3ccccc3C2(C)C)cc1`, the cell number change was found to be 18.7%.

For the compound `O=C(CSc1nnc(-c2ccc(F)cc2)c2ccccc12)NCC1CCCO1` (stereo not drawn), the cell number change was 37.6%. Also, under setting [2], the AC50 was 6.51 µM [rising, single point]. For the same compound, under setting [1], the AC50 is 6.51 µM [rising, partial curve, poor fit].

As for `CN(C)CCCOC(=O)c1ccc(Cl)cc1Cl`, the cell number change was -15%. In addition, the AC50 under setting [1] was 7.31 µM [falling, partial curve, poor fit].

As to `Cc1ccc(-c2nnc(SCC(=O)N3CCCC3)o2)cc1`, the cell number change was -0.0726%.

As to `CCOc1nc2cnccc2n(CC(=O)Nc2c(C)cccc2CC)c1=O`, the cell number change was found to be 2.95%. Besides, under setting [1], the AC50 was 6.51 µM [rising, single point].

Take `Cc1c(-c2ccccc2)nc(N)c(C#N)c1-c1cccnc1`: the cell number change is 10.8%. Besides, the AC50 under setting [2] was 1.64 µM [rising, partial curve]. The AC50 under setting [1] was 0.366 µM [rising, partial curve].

On to `O=C(C1CCCN(Cc2cccc(F)c2)C1)N1CCCCC1` (stereo not drawn), for which the cell number change is -120%. Besides, under setting [2], the AC50 was 25.9 µM [falling, partial curve, poor fit]. In addition, the AC50 under setting [1] is 20.6 µM [falling, partial curve].

Take `O=C(OCCN1CCCC1)C1(c2ccccc2)CCCC1`: the cell number change is 3.93%. For the same compound, the AC50 under setting [1] is 0.146 µM [falling, full curve, poor fit].

Regarding `CC(C)NC(=O)C1CC(=O)N(C(C)c2ccccc2)C1` (stereo not drawn), the cell number change was -30.1%. In addition, under setting [2], the AC50 was 0.146 µM [falling, full curve]. For the same compound, the AC50 under setting [1] was 1.46 µM [falling, full curve].

For `CCOC(=O)[C@H]1[C@H]2COc3ccc(Cl)cc3[C@@H]2N2C(=O)c3cc(C)ccc3NC(=O)[C@@]12C`, the AC50 under setting [1] was 0.461 µM [falling, single point].

Regarding `COc1cccc(NC(=O)c2ccc(S(=O)(=O)N3CCCC3)cc2)c1`, the cell number change was -6.67%. For the same compound, the AC50 under setting [1] was 0.206 µM [rising, single point].

For `COc1cc(C(C(=O)NCc2ccccc2)N(C(=O)c2snc(C(N)=O)c2N)C2CCCC2)cc(OC)c1OC` (stereo not drawn), the cell number change was -2.63%.

Regarding `S=C(Nc1ccc(Cl)c(Cl)c1)NC1CCCCC1`, the cell number change is -28.8%.

`Cc1ccccc1NS(=O)(=O)c1ccc(OCC(=O)N2CCCCC2)cc1`: the cell number change was 52.4%. The AC50 under setting [2] is 8.2 µM [rising, partial curve]. In addition, under setting [1], the AC50 is 0.58 µM [rising, single point].

As to `COc1ccc(CNC(=O)N2CCN(c3cccc(Cl)c3)CC2)cc1OC`, the cell number change was determined as 7.21%. The AC50 under setting [1] was 29.1 µM [rising, partial curve, poor fit].

As to `CCn1c(SCC(=O)c2cc(C)n(C)c2C)nnc1-c1ccccc1`, the cell number change is 117%. The AC50 under setting [2] is 4.11 µM [rising, full curve]. For the same compound, the AC50 under setting [1] was 8.2 µM [rising, partial curve].

With `Cc1ccc(-c2nn(-c3ccccc3)cc2C(=O)N2CCOCC2)cc1`, the cell number change was 20.8%. Moreover, the AC50 under setting [2] was 3.66 µM [rising, single point].

As to `Cc1ccccc1NN=Nc1nc2c([nH]1)c(=O)n(C)c(=O)n2C`, the cell number change is 148%. Besides, the AC50 under setting [2] was 6.51 µM [rising, full curve]. In addition, the AC50 under setting [1] is 0.731 µM [rising, full curve].

`COC(=O)c1sccc1NC(=O)c1ccc(OC)cc1`: the cell number change is -31.9%. Moreover, the AC50 under setting [2] was 2.31 µM [falling, full curve, poor fit]. For the same compound, the AC50 under setting [1] is 0.82 µM [rising, single point].
